Assay [1] addresses importin α KPNA5 (LUMIER construct) (UniProt O15131). Put plainly: LUMIER assay; LUMIER assay as described previously (refs 59, 60); format not told here.
The target in assay [2] is importin α KPNA4 (LUMIER construct) (UniProt O00629). The description is as above.
For assay [3], the target named is importin α KPNA4 (yeast two-hybrid construct) (UniProt O00629). Put plainly: two-hybrid; yeast two-hybrid, HIS3 reporter gene activation; bait and prey not told. For orientation: Reporter assays use an easily measured gene product as a stand-in for the process of interest.
Assay [4] has as its target HSV-1 pUL34 (yeast two-hybrid construct) (Herpes simplex virus type 1 (HSV-1), strain 17+) (UniProt P10218). The assay is described as above.
In assay [5] the target is importin α KPNA5 (yeast two-hybrid construct) (UniProt O15131). The description is as above.
Assay [6] deals with MBP-pUL34 (Herpes simplex virus type 1 (HSV-1), strain 17+) (UniProt P10218). Put plainly: pull-down; co-affinity purification on Amylose resin from lysates of HeLa cells co-transfected with MBP-pUL34 and myc-pUL31 or myc-pUL31ΔN, 24 hpt; lysis buffer 20 mM Tris-HCl pH8, 150 mM NaCl, 10% glycerol, 0.5% Triton X-100, 2 mM EDTA; 1 hour at 4°C; Western blot with anti-MBP and anti-myc. (Immunoblotting shows a protein as a band on a membrane.)

Protein sequences, listed by entry. Tags and fused reporters are not part of them.
UniProt O15131: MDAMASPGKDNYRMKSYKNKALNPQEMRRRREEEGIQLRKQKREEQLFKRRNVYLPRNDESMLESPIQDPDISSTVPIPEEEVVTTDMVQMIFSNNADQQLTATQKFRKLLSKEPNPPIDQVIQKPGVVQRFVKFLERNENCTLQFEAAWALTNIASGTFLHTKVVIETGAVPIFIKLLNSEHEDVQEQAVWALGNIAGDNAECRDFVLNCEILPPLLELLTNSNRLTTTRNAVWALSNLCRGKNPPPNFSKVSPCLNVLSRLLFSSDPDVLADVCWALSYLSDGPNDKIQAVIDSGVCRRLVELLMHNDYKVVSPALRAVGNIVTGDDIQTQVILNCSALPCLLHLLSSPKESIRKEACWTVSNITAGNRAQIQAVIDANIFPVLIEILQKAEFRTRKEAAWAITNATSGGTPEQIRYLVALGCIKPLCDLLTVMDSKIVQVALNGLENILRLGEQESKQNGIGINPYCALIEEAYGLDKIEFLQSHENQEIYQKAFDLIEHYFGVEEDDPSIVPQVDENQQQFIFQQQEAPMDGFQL
UniProt O00629: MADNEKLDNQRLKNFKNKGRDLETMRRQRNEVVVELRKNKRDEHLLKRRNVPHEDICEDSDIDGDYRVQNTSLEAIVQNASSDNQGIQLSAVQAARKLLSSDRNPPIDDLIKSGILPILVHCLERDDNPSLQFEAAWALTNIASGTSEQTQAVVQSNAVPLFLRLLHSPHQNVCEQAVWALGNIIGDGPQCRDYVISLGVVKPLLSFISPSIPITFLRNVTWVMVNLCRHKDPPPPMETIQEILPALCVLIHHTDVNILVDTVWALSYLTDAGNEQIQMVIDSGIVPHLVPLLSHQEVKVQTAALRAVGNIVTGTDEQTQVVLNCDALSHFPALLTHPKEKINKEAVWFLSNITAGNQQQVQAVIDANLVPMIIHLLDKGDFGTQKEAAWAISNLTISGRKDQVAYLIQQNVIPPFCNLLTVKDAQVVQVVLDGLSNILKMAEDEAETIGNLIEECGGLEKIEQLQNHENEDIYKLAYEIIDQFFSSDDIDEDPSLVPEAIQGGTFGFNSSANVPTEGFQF
UniProt P10218: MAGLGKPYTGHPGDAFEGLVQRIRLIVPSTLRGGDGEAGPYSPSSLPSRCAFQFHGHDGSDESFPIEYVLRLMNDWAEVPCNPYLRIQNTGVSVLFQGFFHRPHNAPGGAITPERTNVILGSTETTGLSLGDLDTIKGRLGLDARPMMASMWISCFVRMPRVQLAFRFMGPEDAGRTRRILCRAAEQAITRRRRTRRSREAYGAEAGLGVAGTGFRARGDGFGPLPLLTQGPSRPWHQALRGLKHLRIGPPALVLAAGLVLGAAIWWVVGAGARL
UniProt P10215: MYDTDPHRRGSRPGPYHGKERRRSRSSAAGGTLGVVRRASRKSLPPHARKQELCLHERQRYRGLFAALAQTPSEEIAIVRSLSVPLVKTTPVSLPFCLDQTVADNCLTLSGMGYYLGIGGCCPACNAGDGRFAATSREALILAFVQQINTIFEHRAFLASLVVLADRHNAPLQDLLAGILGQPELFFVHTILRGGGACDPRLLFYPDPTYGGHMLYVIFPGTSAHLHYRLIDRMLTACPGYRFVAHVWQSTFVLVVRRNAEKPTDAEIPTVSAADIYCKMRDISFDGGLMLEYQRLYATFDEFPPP

Results are given in words; binding and its absence hold for the method and conditions named. For part of these data: Binding seen in cells or lysates may run through a third protein. Some results given as binding are weak or reduced against the parent protein; the word gives no strength.

In the case of “HSV-1 pUL31 (LUMIER construct) (from UniProt P10215 1-306)”, the binding entry in assay [1] and in assay [2] was “binds” in each case.
In the case of “HSV-1 pUL31 (yeast two-hybrid construct) (from UniProt P10215 1-306)”, the binding entry in assay [3], in assay [4] and in assay [5] was “binds” throughout.
myc-pUL31 (from UniProt P10215 1-306): the binding entry in assay [6] was “binds”.

The values are drawn from paper PMC4471197.
